Where two headings read alike, the source gives them in different places. Among all 3,300 compounds or so, about 60 (2%) showed an effect of 50% or more. This is one part of the list.
Tested on: HCoV-OC43
Design: species or system RD; HTS, protection from HCoV-OC43 induced cell death, luminescent cell viability (CellCounting-Lite 2.0), inhibition rate
Conditions: 24 h post infection, 1 h compound pre-incubation, 10 µM, inhibitor

Structure (SMILES)	OC43 Inhibition rate	OC43 Inhibition rate (OC43 Inhibition rate, 24 h)
COc1cc(O)c(CC=C(C)C)c(O)c1C(=O)/C=C/c1ccc(O)cc1 [Xanthohumol]	28.2%	–
C[C@@H]1CC[C@@]2(OC1)O[C@H]1C[C@H]3[C@@H]4CC=C5C[C@@H](O)C[C@@H](O[C@@H]6O[C@H](C)[C@H](O)[C@H](O[C@@H]7OC[C@@H](O)[C@H](O)[C@H]7O)[C@H]6O[C@@H]6O[C@H](CO)[C@@H](O)[C@H](O)[C@H]6O)[C@]5(C)[C@H]4CC[C@]3(C)[C@H]1[C@@H]2C [Saponin C, from Liriope muscari]	66.4%	–
CC(=O)O[C@]1(C)CC[C@@]23C[C@@H]1C(C)(C)[C@@H]2CC[C@H]3C [Cedryl acetate]	0%	–
C[C@@H]1O[C@@H](O[C@H]2[C@H](OC(=O)[C@]34CCC(C)(C)C[C@H]3C3=CC[C@@H]5[C@@]6(C)C[C@H](O)[C@@H]7O[C@@H]8O[C@H](CO)[C@@H](O)[C@H](O)[C@H]8O[C@@H]8OC[C@H](O)[C@H](O)[C@H]8OC(=O)C[C@@](C)(O)CC(=O)OC[C@@]7(C)[C@@H]6CC[C@@]5(C)[C@]3(C)CC4)OC[C@H](O)[C@@H]2O)[C@H](O)[C@H](O[C@@H]2OC[C@@H](O)[C@H](O)[C@H]2O)[C@H]1O [Tubeimoside I]	57.2%	–
CC(C)C1=CC2=CC[C@@H]3[C@](C)(CCC[C@@]3(C)C(=O)O)[C@H]2CC1 [Abietic acid]	-1%	–
C[C@H](CCC(=O)NCC(=O)O)[C@H]1CC[C@H]2[C@@H]3CC[C@@H]4C[C@H](O)CC[C@]4(C)[C@H]3C[C@H](O)[C@]12C [Glycodeoxycholic Acid]	–	1%
COc1cc(O)c2c(=O)cc(-c3ccccc3)oc2c1 [Tectochrysin]	18.2%	–
COc1cc(CCO[C@@H]2O[C@H](CO[C@@H]3O[C@H](CO)[C@@H](O)[C@H](O)[C@H]3O)[C@@H](OC(=O)/C=C/c3ccc(O)c(O)c3)[C@H](O[C@@H]3O[C@@H](C)[C@H](O)[C@@H](O)[C@H]3O)[C@H]2O)ccc1O [Cistanoside A]	-3%	–
O=C(O)c1ccc(O)cc1O [2,4-Dihydroxybenzoic acid]	2.4%	–
COC(=O)C1=CO[C@@H](O[C@@H]2O[C@H](CO)[C@@H](O)[C@H](O)[C@H]2O)[C@@H]2[C@@H](C)CC(=O)[C@]12O [Hastatoside]	-0.3%	–
C[C@@H]1O[C@@H](O[C@H]2C[C@@H](O)[C@]3(CO)[C@H]4[C@H](O)C[C@]5(C)[C@@H](C6=CC(=O)OC6)CC[C@]5(O)[C@@H]4CC[C@]3(O)C2)[C@H](O)[C@H](O)[C@H]1O [Ouabain (Octahydrate)]	-12.2%	–

From publication PMC12431657, “Discovery and mechanistic insights of dibenzoylmethane as a broad spectrum inhibitor of coronavirus” (PLOS Pathogens, 2025)
